Measured values from patent US11478526B2, “Methods of reducing neuroinflammation or toxicity induced by amyloid beta (abeta) using glucocorticoid induced leucine zipper (GILZ) analog peptides” (INDIANA UNIVERSITY RESEARCH AND TECHNOLOGY CORPORATION, priority 2016, dated 2022).
For at least one compound, name, drawing or mass did not settle the structure.

By UniProt entry, the sequences of proteins in these tests, tags left out.
UniProt Q04206, whole entry: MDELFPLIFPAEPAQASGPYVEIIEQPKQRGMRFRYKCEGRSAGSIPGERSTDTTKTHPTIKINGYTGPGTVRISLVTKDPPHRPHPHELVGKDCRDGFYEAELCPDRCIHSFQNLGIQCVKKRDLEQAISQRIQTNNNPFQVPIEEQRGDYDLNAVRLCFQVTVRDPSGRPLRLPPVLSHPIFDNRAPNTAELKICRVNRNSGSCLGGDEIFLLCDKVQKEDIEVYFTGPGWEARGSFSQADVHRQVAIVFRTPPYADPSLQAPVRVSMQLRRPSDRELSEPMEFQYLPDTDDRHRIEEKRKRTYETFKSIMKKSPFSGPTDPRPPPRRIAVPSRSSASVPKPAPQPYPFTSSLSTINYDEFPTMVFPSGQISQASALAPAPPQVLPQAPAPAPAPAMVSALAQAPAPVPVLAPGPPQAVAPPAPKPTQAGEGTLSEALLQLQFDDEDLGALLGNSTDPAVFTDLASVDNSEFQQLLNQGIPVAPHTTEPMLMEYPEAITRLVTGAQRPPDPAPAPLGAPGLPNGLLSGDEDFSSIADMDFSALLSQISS

How the values were obtained:
[1] = system: GILZ; assay: GILZ expression (Western blot, qPCR) with dexamethasone; type: cell-based, human; conditions: 0-10 μM, 24 h
[2] = molecular target: T1, Recombinant human p65 protein (r-p65) (Homo sapiens, UniProt Q04206); assay: Plate binding ELISA of GA/PGA with r-p65 (KD by method of Friguet); conditions: method of Friguet et al.; read-out: dissociation constant, KD
T1 construct: purchased Ori-Gene Technologies Inc., Rockville, Md; TP320780
Method: We used similar method to determine direct binding kinetics of GA hexapeptides with human r-p65. […] Absorbance at 650 nm was measured with a mixing time of 30 s using BIORAD microplate reader. […] The dissociation constant of the interaction between the GA or the control peptide and r-p65 was determined by the method of Friguet et al., as described. A fraction of the bound r-p65 (x) and the ratio of bound r-p65 to the free GA or control peptide (y) was determined by the equations: x=(A0−A)/(A0), where A0 is the absorbance of r-p65anti-p65 complex in the absence of bound GA or control peptide and y=(A0−A)/(a0−i0)×(A0−A)/(A0), where a0 is the total concentration of GA or control peptide and i0 is the total concentration of r-p65.
Kinetics of PGA:-p65 interaction: The binding kinetics of top five PGA with full length human r-p65 was assessed as described. Plate bound GILZ-P or PGA at increasing concentrations was probed with r-p65-DDK (Ori-Gene Technologies Inc., Rockville, Md.) at constant concentration and detected with anti-DDK.

Compound | GILZ protein and transcript [1] | Kd [2]
C[C@@H]1C[C@H]2[C@@H]3CCC4=CC(=O)C=C[C@]4(C)[C@@]3(F)[C@@H](O)C[C@]2(C)[C@@]1(O)C(=O)CO [DEX, dexamethasone] | increased at lower but decreased at the highest DEX concentration tested | 
Ac-EPAPESPQV-NH2 [GA-2] |  | 3.24 µM
